Values from PubChem BioAssay AID1224826 (NIAID, 2016)
Here is one part, drawn at random, of about 17,000 deposited reagents. Over the whole deposit, about 1,110 (6.6%) were called active. 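Active means lowered or raised reporter signal; replicate intensities are raw and not normalised per plate.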 Some reagents were tested in more than one well and are listed for each.

Test: 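Knock-downs that raise or lower Tnf reporter signal after endotoxin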 (primary screen)
System: RAW264.7 G9 macrophages from mouse bearing reporters for p65 (GFP) and the Tnf promoter (mCherry)
Knock-down reagent: siRNA pool against mouse genes, 100 nM
Duration: 16 h of LPS stimulation, after 2 days of siRNA transfection
Conditions: bacterial lipopolysaccharide (Salmonella minnesota R595), 10 ng/ml
Detection: 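Imaged Tnf reporter mCherry in nuclei, minus background, normalised per plate to the median and expressed as robust z-scores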
Scale: Tnf reporter robust z-score: higher = stronger Tnf promoter reporter signal after LPS; Tnf reporter intensity: higher = stronger Tnf promoter reporter signal
Call rule: 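a well counts as active at a score of -1.3 or below (Tlr4 knock-down control median) or above 3 (raised signal); controls and wells holding fewer than 50 cells are excluded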
Calls: active = Tnf reporter clearly lowered or raised; inactive = no clear change in Tnf reporter

no.	Target gene	Tnf reporter robust z-score	fewer than 50 cells in well	Tnf reporter intensity, replicate 1	Tnf reporter intensity, replicate 2	activity call
1	Usp10 (ubiquitin specific peptidase 10)	-0.87	enough cells in well	167	156	inactive
2	Cnksr1 (connector enhancer of kinase suppressor of Ras 1)	2.72	enough cells in well	373	53.9	inactive
3	Ifitm3 (interferon induced transmembrane protein 3)	-0.22	enough cells in well	185	65	inactive
4	Abhd3 (abhydrolase domain containing 3)	-0.81	enough cells in well	112	118	inactive
5	Mfap1a (microfibrillar-associated protein 1A)	-1.76	enough cells in well	81.5	78.6	active
6	Fancm (Fanconi anemia, complementation group M)	0.95	enough cells in well	103	246	inactive
7	Fgf7 (fibroblast growth factor 7)	-0.12	enough cells in well	231	239	inactive
8	Vmn1r21 (vomeronasal 1 receptor 21)	0.56	enough cells in well	105	107	inactive
9	Ugt8a (UDP galactosyltransferase 8A)	0.56	enough cells in well	300	242	inactive
10	Slc52a3		fewer than 50 cells per well; well left out of calls	233	110	inactive
11	Mien1 (migration and invasion enhancer 1)	-0.34	enough cells in well	129	58.5	inactive
12	Pdgfb (platelet derived growth factor subunit B)	-2.19	enough cells in well	71.6	51.1	active
13	Peg3 (paternally expressed 3)	-1.09	enough cells in well	96.6	95.7	inactive
14	Slc4a10		fewer than 50 cells per well; well left out of calls	72.1	58.1	inactive
15	Or4c107 (olfactory receptor family 4 subfamily C member 107)	-0.59	enough cells in well	180	96.7	inactive
16	Stk26 (serine/threonine kinase 26)	1.24	enough cells in well	245	253	inactive
17	Stk26 (serine/threonine kinase 26)	0.7	enough cells in well	306	87.7	inactive
18	Tex13b (testis expressed 13B)	1.36	enough cells in well	179	129	inactive
19	Gjd2 (gap junction protein, delta 2)	0.73	enough cells in well	267	198	inactive
20	Samd5 (sterile alpha motif domain containing 5)	-0.92	enough cells in well	144	69.3	inactive
21	Zdhhc24 (zinc finger, DHHC domain containing 24)		fewer than 50 cells per well; well left out of calls	146	107	inactive
22	Nlgn1 (neuroligin 1)	-0.41	enough cells in well	159	131	inactive
23	Sntb2 (syntrophin, basic 2)	-0.78	enough cells in well	81	50.5	inactive
24	Nalcn (sodium leak channel, non-selective)	1.44	enough cells in well	221	263	inactive
25	Or10q1b (olfactory receptor family 10 subfamily Q member 1B)	2.18	enough cells in well	298	220	inactive
26	Ak5 (adenylate kinase 5)	-0.96	enough cells in well	158	108	inactive
27	Ppm1j (protein phosphatase 1J)	0.26	enough cells in well	279	199	inactive
28	Zeb2 (zinc finger E-box binding homeobox 2)	-0.91	enough cells in well	170	146	inactive
29	Il17re (interleukin 17 receptor E)	-1.62	enough cells in well	92	56.5	active
30	Mzb1 (marginal zone B and B1 cell-specific protein 1)		fewer than 50 cells per well; well left out of calls	266	103	inactive
31	Abhd5 (abhydrolase domain containing 5)	1.03	enough cells in well	224	200	inactive
32	Tac4 (tachykinin 4)	0.28	enough cells in well	128	81.6	inactive
33	Mphosph10	2.3	enough cells in well	297	247	inactive
34	Ntpcr (nucleoside-triphosphatase, cancer-related)		fewer than 50 cells per well; well left out of calls	43.8	0	inactive
35	Tsnaxip1 (translin-associated factor X (Tsnax) interacting protein 1)	0.59	enough cells in well	169	84.9	inactive
36	Ro60 (Ro60, Y RNA binding protein)	0.8	enough cells in well	144	111	inactive
37	Ski (ski proto-oncogene)	-0.12	enough cells in well	275	201	inactive
38	Agtr2 (angiotensin II receptor, type 2)	-0.4	enough cells in well	216	96.3	inactive
39	Agtr2 (angiotensin II receptor, type 2)	0.36	enough cells in well	244	327	inactive
40	Fsaf1 (40S small subunit processome assembly factor 1)	3.02	enough cells in well	396	175	active
41	Mmp28 (matrix metallopeptidase 28 (epilysin))	0.31	enough cells in well	283	234	inactive
42	Anxa11 (annexin A11)	-0.06	enough cells in well	156	175	inactive
43	Fpr2 (formyl peptide receptor 2)	0.13	enough cells in well	194	361	inactive
44	Mark3 (MAP/microtubule affinity regulating kinase 3)	-0.7	enough cells in well	157	117	inactive
45	Irf5 (interferon regulatory factor 5)	0.51	enough cells in well	301	161	inactive
46	Jph2 (junctophilin 2)	1.77	enough cells in well	298	216	inactive
47	Mgll (monoglyceride lipase)	0.95	enough cells in well	366	256	inactive
48	Zfp775 (zinc finger protein 775)	-0.11	enough cells in well	115	146	inactive
49	Naglu (alpha-N-acetylglucosaminidase (Sanfilippo disease IIIB))	0.62	enough cells in well	299	265	inactive
50	Ccnb3 (cyclin B3)	0.4	enough cells in well	304	211	inactive
51	Pcdhga12 (protocadherin gamma subfamily A, 12)	1.41	enough cells in well	238	176	inactive
52	Nkx6-2 (NK6 homeobox 2)	-0.93	enough cells in well	121	109	inactive
53	Trpc7	-0.77	enough cells in well	156	187	inactive
54	Lpar3 (lysophosphatidic acid receptor 3)	-0.73	enough cells in well	127	284	inactive
55	Gm4876 (predicted gene 4876)	-0.32	enough cells in well	190	179	inactive
56	Crtac1 (cartilage acidic protein 1)	-0.12	enough cells in well	127	221	inactive
57	Ttl (tubulin tyrosine ligase)	0.3	enough cells in well	108	117	inactive
58	Ap2s1 (adaptor-related protein complex 2, sigma 1 subunit)	0.52	enough cells in well	233	230	inactive
59	Slc35f2		fewer than 50 cells per well; well left out of calls	22.2	35.2	inactive
60	Gdf9 (growth differentiation factor 9)	0.24	enough cells in well	321	215	inactive
61	Txnl4b (thioredoxin-like 4B)	1.12	enough cells in well	343	155	inactive
62	Ube3b (ubiquitin protein ligase E3B)	-0.16	enough cells in well	212	225	inactive
63	Rnf13 (ring finger protein 13)	0.27	enough cells in well	122	156	inactive
64	Ubxn2b (UBX domain protein 2B)		fewer than 50 cells per well; well left out of calls	130	46.5	inactive
65	Acsm4 (acyl-CoA synthetase medium-chain family member 4)	1.59	enough cells in well	33.9	255	inactive
66	Adamtsl2 (ADAMTS-like 2)	-0.28	enough cells in well	142	128	inactive
67	L2hgdh (L-2-hydroxyglutarate dehydrogenase)	0.91	enough cells in well	236	310	inactive
68	Ark2n (arkadia (RNF111) N-terminal like PKA signaling regulator 2N)	0.17	enough cells in well	227	161	inactive
69	Kdsr (3-ketodihydrosphingosine reductase)	0.19	enough cells in well	315	212	inactive
70	Ints14 (integrator complex subunit 14)		fewer than 50 cells per well; well left out of calls	108	47	inactive
71	Ngly1 (N-glycanase 1)	-0.03	enough cells in well	215	110	inactive
72	Lama1 (laminin, alpha 1)	-0.01	enough cells in well	258	136	inactive
73	Sin3a (SIN3 transcription regulator family member A)	0.08	enough cells in well	282	225	inactive
74	Rraga (Ras-related GTP binding A)	-0.18	enough cells in well	356	149	inactive
75	Bcar1 (breast cancer anti-estrogen resistance 1)	-0.06	enough cells in well	130	176	inactive

Quoted from above (9 entries):
no.	Target gene	Tnf reporter robust z-score	fewer than 50 cells in well	Tnf reporter intensity, replicate 1	Tnf reporter intensity, replicate 2	activity call
48	Zfp775 (zinc finger protein 775)	-0.11	enough cells in well	115	146	inactive
49	Naglu (alpha-N-acetylglucosaminidase (Sanfilippo disease IIIB))	0.62	enough cells in well	299	265	inactive
50	Ccnb3 (cyclin B3)	0.4	enough cells in well	304	211	inactive
51	Pcdhga12 (protocadherin gamma subfamily A, 12)	1.41	enough cells in well	238	176	inactive
52	Nkx6-2 (NK6 homeobox 2)	-0.93	enough cells in well	121	109	inactive
53	Trpc7	-0.77	enough cells in well	156	187	inactive
54	Lpar3 (lysophosphatidic acid receptor 3)	-0.73	enough cells in well	127	284	inactive
55	Gm4876 (predicted gene 4876)	-0.32	enough cells in well	190	179	inactive
56	Crtac1 (cartilage acidic protein 1)	-0.12	enough cells in well	127	221	inactive
